No constants are given. Whether binding was seen depends on the method and setting. Some entries that bind do so weakly or less than the wild type.
Assays:
[1] = biological target: MBP-JMJD7 fusion protein (with a truncated linker) (mouse) (UniProt P0C872); test: crystal structure; MBP-JMJD7 (20 mg/ml), vapor diffusion, 100 mM Citrate Sodium, 20% PEG 3350, 4 °C; in the absence of α-KG; two molecules in one asymmetric unit; both purified
[2] = biological target: JMJD7 (mouse), JMJD7 protein alone generated from GST-JMJD7 fusion protein (mouse) (UniProt P0C872); test: crystal structure; mJMJD7 (from GST-mJMJD7, tag removed, 10 mg/ml), vapor diffusion, 0.1 M MES monohydrate pH6.0, 10% PEG4000, 4 °C; in the presence of α-KG; two molecules in one asymmetric unit; both purified

Protein sequences, listed by entry. Tags and fused reporters are not part of them.
UniProt P0C872: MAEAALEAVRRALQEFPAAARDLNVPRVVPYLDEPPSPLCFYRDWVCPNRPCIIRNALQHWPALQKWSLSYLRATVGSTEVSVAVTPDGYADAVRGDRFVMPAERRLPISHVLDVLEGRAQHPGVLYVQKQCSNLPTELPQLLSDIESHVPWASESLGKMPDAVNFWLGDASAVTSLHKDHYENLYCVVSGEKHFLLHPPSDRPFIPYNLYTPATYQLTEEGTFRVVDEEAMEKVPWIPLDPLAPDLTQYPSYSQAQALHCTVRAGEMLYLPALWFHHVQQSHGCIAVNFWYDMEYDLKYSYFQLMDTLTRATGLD

| Substance | binding [1] | binding [2] |
| --- | --- | --- |
| MBP-JMJD7 fusion protein (with a truncated linker) (from UniProt P0C872 1-316) (enzyme) | binds | – |
| JMJD7 (mouse), JMJD7 protein alone generated from GST-JMJD7 fusion protein (from UniProt P0C872 1-316) (enzyme) | – | binds |
